# The supplement of paper PMC10849652
# By UniProt entry, the sequences of proteins in these tests, tags left out. Where a name states a change or a piece, a line headed by the entry shows the natural chain unless it says otherwise.
# UniProt Q5RIA9: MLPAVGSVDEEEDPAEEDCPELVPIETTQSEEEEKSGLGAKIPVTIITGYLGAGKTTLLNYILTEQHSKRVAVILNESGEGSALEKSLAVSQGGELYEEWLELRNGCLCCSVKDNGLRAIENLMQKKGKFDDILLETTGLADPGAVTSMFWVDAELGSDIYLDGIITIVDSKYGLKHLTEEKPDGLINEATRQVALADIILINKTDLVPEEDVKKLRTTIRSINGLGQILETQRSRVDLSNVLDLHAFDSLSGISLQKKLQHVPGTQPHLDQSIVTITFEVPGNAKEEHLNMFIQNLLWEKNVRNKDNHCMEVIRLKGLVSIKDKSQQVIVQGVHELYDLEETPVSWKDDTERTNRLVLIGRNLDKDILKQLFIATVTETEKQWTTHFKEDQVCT
# UniProt O15234, whole entry, looked up: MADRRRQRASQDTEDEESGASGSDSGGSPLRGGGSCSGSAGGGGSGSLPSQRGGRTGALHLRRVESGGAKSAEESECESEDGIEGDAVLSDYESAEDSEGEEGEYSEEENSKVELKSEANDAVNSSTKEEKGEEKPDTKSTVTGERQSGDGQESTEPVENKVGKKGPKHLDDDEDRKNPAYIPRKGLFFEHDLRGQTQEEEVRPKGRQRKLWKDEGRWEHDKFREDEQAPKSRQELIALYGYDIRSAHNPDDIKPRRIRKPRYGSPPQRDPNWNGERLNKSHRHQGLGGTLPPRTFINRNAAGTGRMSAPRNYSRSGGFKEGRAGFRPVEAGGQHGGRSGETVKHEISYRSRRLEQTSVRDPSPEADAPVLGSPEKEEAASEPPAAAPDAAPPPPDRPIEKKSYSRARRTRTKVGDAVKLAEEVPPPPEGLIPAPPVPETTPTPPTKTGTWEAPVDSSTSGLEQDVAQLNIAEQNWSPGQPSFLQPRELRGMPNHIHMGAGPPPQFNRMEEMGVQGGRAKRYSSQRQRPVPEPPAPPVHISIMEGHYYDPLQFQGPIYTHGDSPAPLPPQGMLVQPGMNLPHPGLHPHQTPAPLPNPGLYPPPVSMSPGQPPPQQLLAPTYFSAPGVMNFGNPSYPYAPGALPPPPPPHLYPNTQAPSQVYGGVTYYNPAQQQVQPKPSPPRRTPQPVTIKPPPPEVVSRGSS
# UniProt Q14790: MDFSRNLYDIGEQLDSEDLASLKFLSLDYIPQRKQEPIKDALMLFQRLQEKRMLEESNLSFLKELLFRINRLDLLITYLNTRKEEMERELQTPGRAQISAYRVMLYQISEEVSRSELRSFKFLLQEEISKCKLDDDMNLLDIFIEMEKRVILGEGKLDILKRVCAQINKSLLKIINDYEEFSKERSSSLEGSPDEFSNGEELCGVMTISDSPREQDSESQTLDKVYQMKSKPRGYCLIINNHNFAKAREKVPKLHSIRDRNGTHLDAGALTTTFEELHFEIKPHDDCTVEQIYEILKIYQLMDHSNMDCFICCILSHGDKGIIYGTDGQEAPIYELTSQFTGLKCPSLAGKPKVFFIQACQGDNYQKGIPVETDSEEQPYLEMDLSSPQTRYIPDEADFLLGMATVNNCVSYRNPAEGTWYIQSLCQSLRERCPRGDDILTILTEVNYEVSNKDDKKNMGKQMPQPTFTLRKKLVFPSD
# UniProt Q9GZT6: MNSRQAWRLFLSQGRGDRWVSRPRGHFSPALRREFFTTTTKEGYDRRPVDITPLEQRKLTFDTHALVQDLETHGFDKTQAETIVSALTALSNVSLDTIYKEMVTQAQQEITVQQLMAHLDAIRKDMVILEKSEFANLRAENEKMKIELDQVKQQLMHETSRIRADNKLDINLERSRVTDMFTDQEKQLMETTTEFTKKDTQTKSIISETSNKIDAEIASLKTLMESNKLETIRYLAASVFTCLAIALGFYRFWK
# UniProt P49368: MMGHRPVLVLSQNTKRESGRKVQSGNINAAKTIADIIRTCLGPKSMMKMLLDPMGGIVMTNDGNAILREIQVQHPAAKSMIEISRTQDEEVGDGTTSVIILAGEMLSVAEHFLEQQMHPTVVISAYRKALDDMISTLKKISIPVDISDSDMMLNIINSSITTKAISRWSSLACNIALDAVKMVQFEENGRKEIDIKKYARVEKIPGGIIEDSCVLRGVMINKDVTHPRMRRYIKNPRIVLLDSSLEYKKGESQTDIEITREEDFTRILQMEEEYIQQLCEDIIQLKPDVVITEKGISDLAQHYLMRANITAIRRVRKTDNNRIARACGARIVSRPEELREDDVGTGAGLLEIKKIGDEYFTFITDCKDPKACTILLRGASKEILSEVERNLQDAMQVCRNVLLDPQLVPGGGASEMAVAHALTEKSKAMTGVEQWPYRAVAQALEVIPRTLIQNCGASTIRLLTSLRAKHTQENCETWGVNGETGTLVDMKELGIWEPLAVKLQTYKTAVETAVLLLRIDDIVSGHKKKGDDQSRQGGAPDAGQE
# UniProt A6NHX0: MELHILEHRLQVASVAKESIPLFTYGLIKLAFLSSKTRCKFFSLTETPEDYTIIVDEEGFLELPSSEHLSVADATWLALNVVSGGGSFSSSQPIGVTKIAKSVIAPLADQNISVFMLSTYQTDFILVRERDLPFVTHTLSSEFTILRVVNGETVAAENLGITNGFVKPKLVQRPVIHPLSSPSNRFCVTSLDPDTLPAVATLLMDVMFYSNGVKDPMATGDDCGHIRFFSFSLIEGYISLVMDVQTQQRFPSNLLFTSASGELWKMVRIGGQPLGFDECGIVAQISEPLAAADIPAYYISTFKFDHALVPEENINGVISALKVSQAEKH
# UniProt P78371: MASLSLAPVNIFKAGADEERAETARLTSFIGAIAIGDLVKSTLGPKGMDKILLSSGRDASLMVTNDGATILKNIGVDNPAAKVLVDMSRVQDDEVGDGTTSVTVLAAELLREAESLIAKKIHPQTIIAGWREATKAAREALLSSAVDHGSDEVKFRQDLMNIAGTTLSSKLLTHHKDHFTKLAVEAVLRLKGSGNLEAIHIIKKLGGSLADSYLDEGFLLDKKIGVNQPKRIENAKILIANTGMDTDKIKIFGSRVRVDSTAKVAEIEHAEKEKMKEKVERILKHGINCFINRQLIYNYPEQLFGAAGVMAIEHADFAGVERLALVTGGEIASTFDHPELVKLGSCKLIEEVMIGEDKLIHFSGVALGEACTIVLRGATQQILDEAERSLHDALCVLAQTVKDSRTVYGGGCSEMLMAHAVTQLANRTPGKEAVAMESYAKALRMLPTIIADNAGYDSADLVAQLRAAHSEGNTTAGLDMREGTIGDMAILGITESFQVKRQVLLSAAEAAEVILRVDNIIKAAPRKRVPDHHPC
# UniProt O75909: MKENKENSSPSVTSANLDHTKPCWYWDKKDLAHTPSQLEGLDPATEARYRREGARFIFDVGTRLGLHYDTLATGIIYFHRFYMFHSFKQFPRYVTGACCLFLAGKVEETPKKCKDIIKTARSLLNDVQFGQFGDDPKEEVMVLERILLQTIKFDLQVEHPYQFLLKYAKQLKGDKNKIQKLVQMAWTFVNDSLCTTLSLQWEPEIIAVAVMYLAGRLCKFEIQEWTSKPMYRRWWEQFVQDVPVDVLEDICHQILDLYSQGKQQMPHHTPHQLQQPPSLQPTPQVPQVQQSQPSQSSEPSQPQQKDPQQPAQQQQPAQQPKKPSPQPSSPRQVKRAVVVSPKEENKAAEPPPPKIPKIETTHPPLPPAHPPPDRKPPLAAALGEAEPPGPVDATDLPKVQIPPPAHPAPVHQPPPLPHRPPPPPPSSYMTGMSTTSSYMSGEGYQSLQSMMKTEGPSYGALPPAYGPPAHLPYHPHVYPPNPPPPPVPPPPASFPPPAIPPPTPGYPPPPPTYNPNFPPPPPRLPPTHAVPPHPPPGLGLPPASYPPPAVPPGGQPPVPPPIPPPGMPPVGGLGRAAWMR
# UniProt Q92851: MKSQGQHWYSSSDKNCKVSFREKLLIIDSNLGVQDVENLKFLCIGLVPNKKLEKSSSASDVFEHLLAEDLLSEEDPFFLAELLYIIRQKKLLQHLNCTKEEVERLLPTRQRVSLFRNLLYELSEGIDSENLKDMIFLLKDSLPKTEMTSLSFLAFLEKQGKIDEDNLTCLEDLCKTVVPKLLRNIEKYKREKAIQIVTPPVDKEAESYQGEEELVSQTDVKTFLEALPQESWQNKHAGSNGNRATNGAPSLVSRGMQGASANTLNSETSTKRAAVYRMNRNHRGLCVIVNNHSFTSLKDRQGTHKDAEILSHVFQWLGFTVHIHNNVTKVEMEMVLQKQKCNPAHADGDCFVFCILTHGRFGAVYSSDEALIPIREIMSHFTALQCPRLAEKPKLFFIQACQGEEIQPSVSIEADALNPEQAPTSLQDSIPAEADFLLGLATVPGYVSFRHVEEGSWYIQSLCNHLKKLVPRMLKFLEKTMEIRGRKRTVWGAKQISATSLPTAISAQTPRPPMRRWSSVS
# UniProt O15446, whole entry, looked up: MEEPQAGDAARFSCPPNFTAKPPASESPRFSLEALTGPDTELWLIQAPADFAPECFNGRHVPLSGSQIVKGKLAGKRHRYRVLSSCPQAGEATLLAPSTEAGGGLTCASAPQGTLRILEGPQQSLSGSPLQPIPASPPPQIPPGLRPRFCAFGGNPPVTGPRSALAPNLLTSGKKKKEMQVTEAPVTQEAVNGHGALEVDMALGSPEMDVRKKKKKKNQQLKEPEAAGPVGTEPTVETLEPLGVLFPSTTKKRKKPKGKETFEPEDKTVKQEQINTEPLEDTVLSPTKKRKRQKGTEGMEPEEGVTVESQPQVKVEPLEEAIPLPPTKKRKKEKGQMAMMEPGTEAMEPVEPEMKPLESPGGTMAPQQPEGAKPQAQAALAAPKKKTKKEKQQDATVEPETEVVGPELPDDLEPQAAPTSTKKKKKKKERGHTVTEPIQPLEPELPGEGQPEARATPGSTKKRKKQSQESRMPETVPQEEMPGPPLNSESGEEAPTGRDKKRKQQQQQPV
# UniProt P14635, whole entry, looked up: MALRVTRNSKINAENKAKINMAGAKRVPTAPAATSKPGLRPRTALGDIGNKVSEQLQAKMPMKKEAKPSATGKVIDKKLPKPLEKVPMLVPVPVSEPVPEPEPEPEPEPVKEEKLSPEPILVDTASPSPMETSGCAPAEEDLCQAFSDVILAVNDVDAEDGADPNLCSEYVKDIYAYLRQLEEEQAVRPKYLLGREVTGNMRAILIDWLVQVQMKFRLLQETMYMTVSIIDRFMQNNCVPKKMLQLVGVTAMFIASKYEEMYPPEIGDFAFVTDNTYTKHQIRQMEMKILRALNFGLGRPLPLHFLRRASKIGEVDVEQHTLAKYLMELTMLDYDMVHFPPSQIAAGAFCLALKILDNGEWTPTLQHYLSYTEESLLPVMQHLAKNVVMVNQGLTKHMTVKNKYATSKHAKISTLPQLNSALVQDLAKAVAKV
# UniProt Q9Y5K6, whole entry, looked up: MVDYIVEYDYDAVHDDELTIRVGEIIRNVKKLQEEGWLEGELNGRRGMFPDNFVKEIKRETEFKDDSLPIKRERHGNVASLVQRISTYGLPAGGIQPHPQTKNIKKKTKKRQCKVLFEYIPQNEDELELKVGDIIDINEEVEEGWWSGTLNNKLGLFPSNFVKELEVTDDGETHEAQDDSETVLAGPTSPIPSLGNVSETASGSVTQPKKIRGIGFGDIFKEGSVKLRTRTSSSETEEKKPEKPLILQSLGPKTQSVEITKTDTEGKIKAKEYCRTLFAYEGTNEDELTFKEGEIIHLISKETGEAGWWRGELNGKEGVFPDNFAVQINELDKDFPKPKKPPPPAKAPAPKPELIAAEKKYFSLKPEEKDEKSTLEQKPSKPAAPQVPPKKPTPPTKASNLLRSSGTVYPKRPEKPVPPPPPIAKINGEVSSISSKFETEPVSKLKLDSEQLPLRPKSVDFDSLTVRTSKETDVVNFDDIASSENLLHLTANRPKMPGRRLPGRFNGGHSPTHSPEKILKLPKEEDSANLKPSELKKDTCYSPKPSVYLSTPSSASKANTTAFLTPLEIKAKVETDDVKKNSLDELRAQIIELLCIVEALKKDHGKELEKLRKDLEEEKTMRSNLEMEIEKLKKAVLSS
# UniProt Q8N4T8: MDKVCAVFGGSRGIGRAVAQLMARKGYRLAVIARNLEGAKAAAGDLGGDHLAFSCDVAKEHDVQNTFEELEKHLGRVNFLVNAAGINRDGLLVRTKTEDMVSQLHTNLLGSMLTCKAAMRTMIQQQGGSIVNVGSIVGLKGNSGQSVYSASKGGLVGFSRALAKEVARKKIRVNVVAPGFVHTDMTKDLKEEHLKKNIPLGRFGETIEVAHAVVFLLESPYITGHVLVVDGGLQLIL
# UniProt Q4VC31: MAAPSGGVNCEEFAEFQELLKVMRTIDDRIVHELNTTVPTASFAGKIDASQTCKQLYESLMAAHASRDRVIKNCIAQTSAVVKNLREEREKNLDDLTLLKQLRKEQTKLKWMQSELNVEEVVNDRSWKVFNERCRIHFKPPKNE
# Some of the results follow.
# How the values were obtained:
# Assay in all cases: log2 fold change, soluble protein after heating vs DMSO (PISA); higher = thermal stabilisation; K562 lysate, 10 uM; active = over 0.2 and 3.5 SD of the protein, either way, in both replicates (recomputed)
# lapatinib = compound: CS(=O)(=O)CCNCc1ccc(-c2ccc3ncnc(Nc4ccc(OCc5cccc(F)c5)c(Cl)c4)c3c2)o1 [lapatinib]
# Outline: (§1)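 K562 pellets were dounce-homogenised in PBS pH 7.4 containing 1 mM MgCl2, and the crude extract, at 1 mg/mL protein, was exposed to 10 μM compound for 30 min. Aliquots were heated for 3 min across 48°C-58°C, pooled, brought to 0.5% NP-40 at 4°C and spun at 21,000xg for 90 min, with the supernatant taken as soluble protein. TMTpro 16plex LC-MS/MS with equalised channel sums quantified that protein. Values are log-two fold changes in thermal stability relative to solvent controls, taken from duplicates.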
# pictilisib = compound: CS(=O)(=O)N1CCN(Cc2cc3nc(-c4cccc5[nH]ncc45)nc(N4CCOCC4)c3s2)CC1 [pictilisib]
# Outline: as §1
# crizotinib = compound: C[C@@H](Oc1cc(-c2cnn(C3CCNCC3)c2)cnc1N)c1c(Cl)ccc(F)c1Cl [crizotinib]
# Outline: as §1
# [1] = compound: C[C@H](C1=CC=C(C=C1)C(=O)NC2=C3C=CNC3=NC=C2)N
# Outline: as §1
# duvelisib = compound: C[C@H](Nc1ncnc2nc[nH]c12)c1cc2cccc(Cl)c2c(=O)n1-c1ccccc1 [duvelisib]
# Outline: as §1
# gandotinib = compound: Cc1cc(Nc2cc(CN3CCOCC3)c3nc(C)c(Cc4ccc(Cl)cc4F)n3n2)n[nH]1 [gandotinib]
# Outline: as §1
# tozasertib = compound: Cc1cc(Nc2cc(N3CCN(C)CC3)nc(Sc3ccc(NC(=O)C4CC4)cc3)n2)n[nH]1 [tozasertib]
# Outline: as §1
# doramapimod = compound: Cc1ccc(-n2nc(C(C)(C)C)cc2NC(=O)Nc2ccc(OCCN3CCOCC3)c3ccccc23)cc1 [doramapimod]
# Outline: as §1
# bafetinib = compound: Cc1ccc(NC(=O)c2ccc(CN3CC[C@H](N(C)C)C3)c(C(F)(F)F)c2)cc1Nc1nccc(-c2cncnc2)n1 [bafetinib]
# Outline: as §1
# [2] = compound: Cc1cccc(CC(=O)N2CCc3c2ccc(-c2cn(C)c4ncnc(N)c24)c3F)n1
# Outline: as §1
# nilotinib = compound: Cc1cn(-c2cc(NC(=O)c3ccc(C)c(Nc4nccc(-c5cccnc5)n4)c3)cc(C(F)(F)F)c2)cn1 [nilotinib]
# Outline: as §1
# [3] = compound: Cc1nc(Nc2n[nH]c3c2CN(C(=O)N[C@H](CN(C)C)c2ccccc2)C3(C)C)c2sccc2n1
# Outline: as §1
# dasatinib = compound: Cc1nc(Nc2ncc(C(=O)Nc3c(C)cccc3Cl)s2)cc(N2CCN(CCO)CC2)n1 [dasatinib]
# Outline: as §1
# [4] = compound: Cc1ncc(-c2ccnc(Nc3ccc(S(C)(=O)=O)cc3)n2)n1C(C)C
# Outline: as §1
# [5] = compound: Cn1cc(-c2ccc3c(c2)CCN3C(=O)Cc2cccc(C(F)(F)F)c2)c2c(N)ncnc21
# Outline: as §1
# quisinostat = compound: Cn1cc(CNCC2CCN(c3ncc(C(=O)NO)cn3)CC2)c2ccccc21 [quisinostat]
# Outline: as §1
# tipifarnib = compound: Cn1cncc1[C@@](N)(c1ccc(Cl)cc1)c1ccc2c(c1)c(-c1cccc(Cl)c1)cc(=O)n2C [tipifarnib]
# Outline: as §1
# [6] = compound: NC(=O)Nc1cc(-c2cccc(F)c2)sc1C(=O)N[C@H]1CCCNC1
# Outline: as §1
# [7] = compound: NC(=O)c1cnc(N[C@@H]2CCCC[C@@H]2N)nc1Nc1cccc(-n2nccn2)c1
# Outline: as §1
# [8] = compound: NC1(c2ccc(-c3nc4ccn5c(=O)[nH]nc5c4cc3-c3ccccc3)cc2)CCC1
# Outline: as §1
Target,log2 fold change (lapatinib),log2 fold change (pictilisib),log2 fold change (crizotinib),log2 fold change [1],log2 fold change (duvelisib),log2 fold change (gandotinib),log2 fold change (tozasertib),log2 fold change (doramapimod),log2 fold change (bafetinib),log2 fold change [2],log2 fold change (nilotinib),log2 fold change [3],log2 fold change (dasatinib),log2 fold change [4],log2 fold change [5],log2 fold change (quisinostat),log2 fold change (tipifarnib),log2 fold change [6],log2 fold change [7],log2 fold change [8]
CBWD5 (UniProt Q5RIA9),inactive: 0.025,inactive: -0.022,inactive: -0.02,inactive: -0.038,inactive: 0.022,inactive: -0.041,inactive: 0.003,inactive: -0.015,inactive: 0.007,inactive: 0.098,inactive: 0.043,inactive: -0.01,inactive: -0.019,inactive: 0.004,inactive: -0.005,inactive: -0.068,inactive: -0.013,inactive: 0.022,inactive: 0.007,inactive: 0.019
CASC3 (UniProt O15234),inactive: 0.025,inactive: 0.002,inactive: 0.084,inactive: -0.042,inactive: 0.032,inactive: 0.033,inactive: 0.021,inactive: 0.007,inactive: 0.06,inactive: 0.033,inactive: -0.007,inactive: -0.004,inactive: -0.01,inactive: -0.024,inactive: -0.007,inactive: -0.003,inactive: -0.011,inactive: 0,inactive: -0.031,inactive: 0.023
CASP8 isoform 9 (UniProt Q14790),inactive: 0.024,inactive: -0.055,inactive: 0.063,inactive: 0.042,inactive: -0.015,inactive: -0.082,inactive: 0.094,inactive: -0.029,inactive: -0.077,inactive: -0.059,inactive: 0.024,inactive: -0.025,inactive: 0.008,inactive: -0.031,inactive: -0.001,inactive: 0.103,inactive: 0.026,inactive: 0.023,inactive: 0.018,inactive: 0.052
CBL (UniProt P22681),inactive: -0.017,inactive: -0.019,inactive: 0.026,inactive: 0.031,inactive: -0.03,inactive: 0.06,inactive: -0.035,inactive: -0.046,inactive: -0.026,inactive: -0.065,inactive: 0.015,inactive: -0.005,inactive: 0.012,inactive: -0.015,inactive: -0.006,inactive: 0.061,inactive: -0.022,inactive: -0.006,inactive: 0.003,inactive: 0.002
CCDC90B (UniProt Q9GZT6),inactive: 0.023,inactive: -0.019,inactive: -0.004,inactive: 0.053,inactive: -0.025,inactive: -0.064,inactive: 0.029,inactive: -0.01,inactive: -0.02,inactive: -0.115,inactive: -0.017,inactive: 0.022,inactive: 0.008,inactive: 0.044,inactive: 0.006,inactive: 0,inactive: -0.035,inactive: -0.038,inactive: -0.015,inactive: 0.003
CCT3 (UniProt P49368),inactive: -0.015,inactive: 0.002,inactive: 0.012,inactive: 0.039,inactive: 0.057,inactive: -0.013,inactive: -0.004,inactive: 0.02,inactive: 0.03,inactive: -0.021,inactive: 0.006,inactive: 0.01,inactive: 0.048,inactive: 0.007,inactive: 0.014,inactive: 0.023,inactive: -0.012,inactive: -0.009,inactive: -0.006,inactive: 0.009
CASTOR2 (UniProt A6NHX0),inactive: -0.033,inactive: -0.028,inactive: -0.013,inactive: -0.026,inactive: 0.011,inactive: 0.026,inactive: -0.065,inactive: -0.032,inactive: -0.077,inactive: -0.037,inactive: 0.06,inactive: -0.01,inactive: 0.012,inactive: 0.038,inactive: 0.007,inactive: 0.067,inactive: -0.033,inactive: -0.03,inactive: 0.019,inactive: 0.019
CCNH (UniProt P51946),inactive: 0.005,inactive: -0.012,inactive: 0.012,inactive: 0.026,inactive: 0.072,inactive: -0.002,inactive: 0.013,inactive: 0.037,inactive: -0.022,inactive: -0.023,inactive: -0.013,inactive: 0.106,inactive: 0.03,inactive: -0.001,inactive: 0.015,inactive: 0.016,inactive: -0.043,inactive: -0.009,inactive: 0.026,inactive: 0.013
CCT2 (UniProt P78371),inactive: -0.011,inactive: 0.015,inactive: 0.026,inactive: 0.037,inactive: 0.006,inactive: -0.045,inactive: 0.004,inactive: -0.03,inactive: 0.024,inactive: -0.045,inactive: 0.005,inactive: -0.019,inactive: 0.005,inactive: 0.005,inactive: -0.003,inactive: 0.042,inactive: 0.031,inactive: -0.023,inactive: -0.007,inactive: -0.037
CCNK isoform 4 (UniProt O75909),inactive: 0.001,inactive: 0.013,inactive: -0.008,active: -0.213,inactive: 0.044,inactive: 0.161,inactive: -0.023,inactive: 0.113,inactive: -0.051,inactive: 0.109,inactive: 0.011,inactive: -0.03,inactive: -0.051,inactive: -0.009,inactive: 0.003,inactive: 0.009,inactive: -0.004,inactive: -0.006,inactive: -0.005,inactive: -0.011
CASP10 isoform 4 (UniProt Q92851),inactive: -0.02,inactive: 0.022,inactive: -0.025,inactive: -0.029,inactive: -0.017,inactive: -0.023,inactive: -0.038,inactive: 0.019,inactive: 0.005,inactive: 0.02,inactive: -0.017,inactive: 0.018,inactive: -0.011,inactive: 0.05,inactive: 0.034,inactive: 0.002,inactive: -0.013,inactive: 0.004,inactive: 0.009,inactive: -0.002
CD3EAP isoform 2 (UniProt O15446),inactive: -0.033,inactive: -0.001,inactive: -0.009,inactive: -0.106,inactive: 0.07,inactive: 0.043,inactive: -0.029,inactive: -0.036,inactive: -0.002,inactive: 0.024,inactive: -0.007,inactive: 0.047,inactive: 0.004,inactive: 0.02,inactive: -0.026,inactive: -0.068,inactive: -0.003,inactive: -0.03,inactive: -0.029,inactive: 0.014
CCNB1 (UniProt P14635),inactive: -0.029,inactive: -0.01,inactive: -0.024,inactive: -0.019,inactive: 0.033,inactive: -0.078,inactive: 0.005,inactive: 0.03,inactive: -0.004,inactive: 0.091,inactive: -0.04,inactive: 0.037,inactive: -0.016,active: 0.369,inactive: -0.021,inactive: 0.035,inactive: -0.005,inactive: 0.005,inactive: 0.165,inactive: 0.006
CD2AP (UniProt Q9Y5K6),inactive: 0.003,inactive: 0.019,inactive: 0.031,inactive: -0.016,inactive: 0.008,inactive: 0.046,inactive: -0.007,inactive: -0.035,inactive: -0.02,inactive: -0.024,inactive: -0.016,inactive: 0.028,inactive: 0.02,inactive: -0.013,inactive: -0.026,inactive: 0.015,inactive: -0.014,inactive: -0.036,inactive: -0.015,inactive: -0.012
CBR4 (UniProt Q8N4T8),inactive: 0.002,inactive: -0.002,inactive: 0.013,inactive: 0.271,inactive: 0.013,inactive: -0.068,inactive: -0.089,inactive: -0.003,inactive: 0.003,inactive: -0.118,inactive: -0.11,inactive: -0.138,inactive: -0.03,inactive: 0.071,inactive: 0,inactive: -0.024,inactive: -0.088,inactive: 0.023,inactive: -0.005,inactive: 0.036
CCDC58 (UniProt Q4VC31),inactive: 0.015,inactive: -0.038,inactive: 0.103,inactive: 0.108,inactive: 0.022,inactive: -0.064,inactive: 0.009,inactive: -0.042,inactive: 0.338,inactive: -0.14,inactive: 0.061,inactive: -0.006,inactive: 0.078,inactive: -0.013,inactive: -0.011,inactive: 0.126,inactive: 0.061,inactive: 0.007,inactive: -0.024,inactive: -0.001

# Retrieved one by one from above (two):
Target,log2 fold change (lapatinib),log2 fold change (pictilisib),log2 fold change (crizotinib),log2 fold change [1],log2 fold change (duvelisib),log2 fold change (gandotinib),log2 fold change (tozasertib),log2 fold change (doramapimod),log2 fold change (bafetinib),log2 fold change [2],log2 fold change (nilotinib),log2 fold change [3],log2 fold change (dasatinib),log2 fold change [4],log2 fold change [5],log2 fold change (quisinostat),log2 fold change (tipifarnib),log2 fold change [6],log2 fold change [7],log2 fold change [8]
CBR4 (UniProt Q8N4T8),inactive: 0.002,inactive: -0.002,inactive: 0.013,inactive: 0.271,inactive: 0.013,inactive: -0.068,inactive: -0.089,inactive: -0.003,inactive: 0.003,inactive: -0.118,inactive: -0.11,inactive: -0.138,inactive: -0.03,inactive: 0.071,inactive: 0,inactive: -0.024,inactive: -0.088,inactive: 0.023,inactive: -0.005,inactive: 0.036
CCDC90B (UniProt Q9GZT6),inactive: 0.023,inactive: -0.019,inactive: -0.004,inactive: 0.053,inactive: -0.025,inactive: -0.064,inactive: 0.029,inactive: -0.01,inactive: -0.02,inactive: -0.115,inactive: -0.017,inactive: 0.022,inactive: 0.008,inactive: 0.044,inactive: 0.006,inactive: 0,inactive: -0.035,inactive: -0.038,inactive: -0.015,inactive: 0.003
